{"source": "paper PMC7764601", "about": "(Molecules, 2020)", "key": {"mice [1]": {"test_system": "mice", "type": "in vivo", "conditions": "ED50 of the writhing test (Table 3) relative to LD50 i.p.", "description": "The experiments were carried out on male albino Swiss mice (body weight 18–26 g). All of the animals were housed at constant humidity (60%) and temperature (25 °C) and kept on a 12 h light/dark cycle. Animals were fed a standard pellet diet with free access to tap water. All procedures were conducted according to Animal Care and Use Committee guidelines, and approved by the Ethical Committee of Jagiellonian University, Kraków.\nControl and experimental groups consisted of 6–8 animals each. The investigated compounds were administered intraperitoneally as a suspension in 0.5% methylcellulose in a constant volume of 10 mL/kg."}, "mice [2]": {"test_system": "mice", "conditions": "intraperitoneal; cited from earlier work"}}, "data": [{"smiles": "CN1CC[C@]23c4c5ccc(O)c4O[C@H]2[C@@H](O)C=C[C@H]3[C@H]1C5", "note": "[Morphine, reference compound]", "values": [{"measurement": "analgesic ED50 as fraction of LD50", "setting": "mice [1]", "result": "1/57"}, {"measurement": "LD50", "setting": "mice [2]", "result": 140.0, "unit": "mg/kg"}]}]}
